{"source": "PubChem BioAssay AID1259405 (NCATS, 2018)", "aim": "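Silenced genes that increase secreted GFP made by CHO cells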 (primary screen)", "system": "Chinese hamster CHO-K1 ovary cells with stable secreted eGFP expression", "knock-down reagent": "single siRNA against mouse genes, 0.8 pmol siRNA per well (2 µl of 400 nM stock)", "time to read-out": "3 days", "measurement": "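Per-well intracellular GFP measured by laser scanning cytometry, plus viability from ATP luminescence, each relative to plate median of non-targeting control wells, in %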", "reading the numbers": "GFP, % of control: higher = more GFP per well, higher productivity; viability (ATP), % of control: higher = more viable cells (more ATP)", "call rule": "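Called active when intracellular GFP, relative to negative control, is at or above 120%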", "note": "This is a random part of about 50,000 reagents tested. Over the whole deposit, about 4,000 (8%) are marked active. 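Mouse siRNA library applied to hamster cells; one well for each siRNA.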 Reagents against one gene are numbered here."}
{"gene symbol": "Cbarp", "siRNA no.": 1, "GFP, % of control": 107, "viability (ATP), % of control": 86.9, "call": "inactive"}
{"gene symbol": "Cbarp", "siRNA no.": 2, "GFP, % of control": 71.9, "viability (ATP), % of control": 47.4, "call": "inactive"}
{"gene symbol": "Cbarp", "siRNA no.": 3, "GFP, % of control": 83, "viability (ATP), % of control": 70.8, "call": "inactive"}
{"gene symbol": "Slc37a2", "siRNA no.": 1, "GFP, % of control": 100, "viability (ATP), % of control": 54.5, "call": "inactive"}
{"gene symbol": "Slc37a2", "siRNA no.": 2, "GFP, % of control": 108, "viability (ATP), % of control": 55, "call": "inactive"}
{"gene symbol": "Slc37a2", "siRNA no.": 3, "GFP, % of control": 41.2, "viability (ATP), % of control": 33.5, "call": "inactive"}
{"gene symbol": "Cnep1r1 (CTD nuclear envelope phosphatase 1 regulatory subunit 1)", "siRNA no.": 1, "GFP, % of control": 69.8, "viability (ATP), % of control": 62.6, "call": "inactive"}
{"gene symbol": "Cnep1r1 (CTD nuclear envelope phosphatase 1 regulatory subunit 1)", "siRNA no.": 2, "GFP, % of control": 86.5, "viability (ATP), % of control": 84.6, "call": "inactive"}
{"gene symbol": "Cnep1r1 (CTD nuclear envelope phosphatase 1 regulatory subunit 1)", "siRNA no.": 3, "GFP, % of control": 94.1, "viability (ATP), % of control": 95.3, "call": "inactive"}
{"gene symbol": "Smtn (smoothelin)", "siRNA no.": 1, "GFP, % of control": 109, "viability (ATP), % of control": 78.2, "call": "inactive"}
{"gene symbol": "Smtn (smoothelin)", "siRNA no.": 2, "GFP, % of control": 53.6, "viability (ATP), % of control": 75.4, "call": "inactive"}
{"gene symbol": "Smtn (smoothelin)", "siRNA no.": 3, "GFP, % of control": 61.6, "viability (ATP), % of control": 78.7, "call": "inactive"}
{"gene symbol": "Msx1 (msh homeobox 1)", "siRNA no.": 1, "GFP, % of control": 89.9, "viability (ATP), % of control": 67.5, "call": "inactive"}
{"gene symbol": "Msx1 (msh homeobox 1)", "siRNA no.": 2, "GFP, % of control": 104, "viability (ATP), % of control": 91.9, "call": "inactive"}
{"gene symbol": "Msx1 (msh homeobox 1)", "siRNA no.": 3, "GFP, % of control": 86, "viability (ATP), % of control": 58.9, "call": "inactive"}
{"gene symbol": "Il1r1 (interleukin 1 receptor, type I)", "siRNA no.": 1, "GFP, % of control": 104, "viability (ATP), % of control": 95.2, "call": "inactive"}
{"gene symbol": "Il1r1 (interleukin 1 receptor, type I)", "siRNA no.": 2, "GFP, % of control": 27.7, "viability (ATP), % of control": 42.7, "call": "inactive"}
{"gene symbol": "Il1r1 (interleukin 1 receptor, type I)", "siRNA no.": 3, "GFP, % of control": 55.7, "viability (ATP), % of control": 43.3, "call": "inactive"}

Just “GFP, % of control”, for 3 of the entries above:
Smtn (smoothelin) #3: 61.6
Msx1 (msh homeobox 1) #1: 89.9
Msx1 (msh homeobox 1) #2: 104
